Measured values taken from patent US6479233B1, “Electrogenerated chemiluminescence labels for analysis and/or referencing” (IGEN International, Inc., priority 1994, dated 2002).

Assay: ECL emission intensity (Perkin-Elmer ECL analyzer, CCD camera, photon counter)

SMILES: O=C(O)c1cccc2c1Sc1ccccc1S2 [1-THCOOH, 1-thianthrenecarboxylic acid]
- peak ECL emission intensity, times less intense than 2-THCOOH (sodium phosphate buffer with TPrA): 6-7 times

SMILES: O=C(O)c1ccc2c(c1)Sc1ccccc1S2 [2-THCOOH, 2-thianthrenecarboxylic acid]
- intensity of emissions, times those of 1-THCOOH (equal THCOOH concentrations (20 mM) and acquisition times): 6-7 times

SMILES: CN(C)CCCN1c2ccccc2Sc2ccc(Cl)cc21 [CPZ, chlorpromazine, reference compound]
- peak ECL emission intensity above background (0.11 mM CPZ, pH 7.5 sodium phosphate buffer, no added coreactant): 80 c/s
- peak ECL emission intensity (1.1 mM CPZ, pH 7.5 sodium phosphate buffer, no added coreactant): 850 c/s

SMILES: O=S(=O)([O-])c1ccc2c(-c3ccccc3)c3ccccc3c(-c3ccccc3)c2c1.[Na+] [DPAS, sodium 9,10-diphenylanthracene-2-sulfonate]
- lowest concentration on ECL intensity vs concentration calibration curve (0.15 M TPrA, pH 7.5 sodium phosphate buffer, Perkin-Elmer analyzer): 32 nM
- ECL emission with oxalate as coreactant (oxidative DPAS/oxalate system): no emission was observed

SMILES: [Ru+2].c1ccc(-c2ccccn2)nc1.c1ccc(-c2ccccn2)nc1.c1ccc(-c2ccccn2)nc1 [Ru(bpy)3^2+, tris (2,2-bipyridine)ruthenium(II), reference compound]
- ECL emission, times more intense than the DPAS emission (5×10^−6 M, CCD camera, corrected for detector sensitivity): approx. 100 times
- detectable concentration, times more dilute than DPAS at similar emission intensities (optimized conditions): about 60 times
